According to PubChem BioAssay AID330 (DTP/NCI, 2004):
The list shows only some results of the screen, not a fair sample: it gathers tests that were run many times, whatever their T/C, doses with no T/C, and many T/C values between a quarter and a half above the control. Other doses and runs of a compound stand elsewhere. T/C gives the treated animals as a percentage of the vehicle group. Some entries give survivors of the animals treated and no T/C: the source files T/C as zero there, which appears to mark a toxic dose or a test without result, not a measured value. Some survivor counts are full or nearly so, which does not show that the dose was tolerated: survival well below the control is almost never listed, so the zero probably covers shortened survival too. Survivors were counted at the toxicity check, usually on the fifth day, unless a day is given; later deaths do not show. Schedule codes are those of the source, taken here to give the interval after Q, in days (D) or hours (H), and the number of doses after X. Some entries hold several experiments; their values stand side by side, smallest first. Signs of the kind (2×) stand for listed records that agree. Where survival is the endpoint, this PubChem deposit counts one and a half times the control or more as active, and values a quarter to a half above the control carry no call in these data; other NCI protocols may use other cut-offs. Some T/C values carry the count of animals alive at the toxicity check (mostly the fifth day); without a count, all were alive then.

Tested on: P388 leukemia ip, CD2F1 mice, survival T/C
Experiment: NCI In Vivo Anticancer Drug Screen. Data for tumor model P388 Leukemia (intraperitoneal) in CD2F1 (CDF1) mice
Settings: T/C endpoint: median survival time, higher T/C = longer survival
[1] = dose: 100.0 mg/kg/injection, schedule: Q01DX005 (ip), vehicle: distilled water + Tween-80

Q: What does the source list for `CCN(CC)CCNc1ccc(C)c2sc3ccccc3c(=O)c12`?
A: T/C (dose: 6.25 mg/kg/injection, schedule: Q01DX005 (ip), vehicle: water, evaluated on day 20): 101 % of control; T/C (dose: 6.25 mg/kg/injection, schedule: Q01DX005 (ip), vehicle: water, evaluated on day 30): 95, 96, 97, 98 (2×), 99, 100 (5×), 101 (2×), 102 (6×), 104 (4×), 105 (5×), 106 (2×), 107 (2×), 108 (5×), 109, 111, 112 % of control; T/C (dose: 6.25 mg/kg/injection, schedule: Q01DX005 (ip), vehicle: water, evaluated on day 35): 102, 104 (2×), 124 % of control; T/C (dose: 6.25 mg/kg/injection, schedule: Q01DX005 (ip), vehicle: water, evaluated on day 40): 100 % of control; T/C (dose: 6.25 mg/kg/injection, schedule: Q01DX005 (ip), vehicle: water, evaluated on day 45): 99 % of control; T/C (dose: 6.25 mg/kg/injection, schedule: Q01DX005 (ip), vehicle: water, evaluated on day 50): 112 % of control; T/C (dose: 12.5 mg/kg/injection, schedule: Q01DX005 (ip), vehicle: water, evaluated on day 20): 100 % of control; T/C (dose: 12.5 mg/kg/injection, schedule: Q01DX005 (ip), vehicle: water, evaluated on day 30): 89, 95, 97 (2×), 98 [5 of 6 alive], 99 (3×), 100 (4×), 102 (4×), 103, 104 (3×), 105 (3×), 106 (3×), 106 [5 of 6 alive], 107 (2×), 108 (3×), 109 (2×), 110, 111 (3×), 112, 113, 115 % of control; T/C (dose: 12.5 mg/kg/injection, schedule: Q01DX005 (ip), vehicle: water, evaluated on day 35): 104 [5 of 6 alive], 105, 110, 126 % of control; T/C (dose: 12.5 mg/kg/injection, schedule: Q01DX005 (ip), vehicle: water, evaluated on day 40): 108 % of control; T/C (dose: 12.5 mg/kg/injection, schedule: Q01DX005 (ip), vehicle: water, evaluated on day 45): 103 % of control; T/C (dose: 12.5 mg/kg/injection, schedule: Q01DX005 (ip), vehicle: water, evaluated on day 50): 110 % of control; T/C (dose: 25.0 mg/kg/injection, schedule: Q01DX005 (ip), vehicle: distilled water + Tween-80): 105, 107 (2×), 132 % of control; T/C (dose: 25.0 mg/kg/injection, schedule: Q01DX005 (ip), vehicle: water, evaluated on day 20): 124 % of control; T/C (dose: 25.0 mg/kg/injection, schedule: Q01DX005 (ip), vehicle: water, evaluated on day 30): 91, 100, 102 [4 of 5 alive], 104 (3×), 105 (2×), 106 (2×), 107 (2×), 108, 109 (2×), 110 (3×), 111 (4×), 112, 114 (3×), 114 [5 of 6 alive], 115 (3×), 116 (3×), 118, 119 (2×), 120, 121, 123 (2×), 137 % of control; T/C (dose: 25.0 mg/kg/injection, schedule: Q01DX005 (ip), vehicle: water, evaluated on day 35): 106, 119, 139, 141 % of control; T/C (dose: 25.0 mg/kg/injection, schedule: Q01DX005 (ip), vehicle: water, evaluated on day 40): 112 % of control; T/C (dose: 25.0 mg/kg/injection, schedule: Q01DX005 (ip), vehicle: water, evaluated on day 45): 107 % of control; T/C (dose: 25.0 mg/kg/injection, schedule: Q01DX005 (ip), vehicle: water, evaluated on day 50): 125 % of control; T/C (dose: 27.0 mg/kg/injection, schedule: Q01DX005 (ip), vehicle: saline): 130 % of control; T/C (dose: 31.3 mg/kg/injection, schedule: Q01DX005 (ip), vehicle: saline): 140 % of control; T/C (dose: 32.4 mg/kg/injection, schedule: Q01DX005 (ip), vehicle: saline): 132 % of control; T/C (dose: 36.0 mg/kg/injection, schedule: Q01DX005 (ip), vehicle: water): 135 % of control; T/C (dose: 45.0 mg/kg/injection, schedule: Q01DX005 (ip), vehicle: saline): 142 % of control; T/C (dose: 45.0 mg/kg/injection, schedule: Q01DX005 (ip), vehicle: water): 126 % of control [7 of 8 alive]; T/C (dose: 50.0 mg/kg/injection, schedule: Q01DX005 (ip), vehicle: distilled water + Tween-80): 97, 120, 127, 128 % of control; T/C (dose: 50.0 mg/kg/injection, schedule: Q01DX005 (ip), vehicle: saline with Tween-80): 131 % of control; T/C (dose: 50.0 mg/kg/injection, schedule: Q01DX005 (ip), vehicle: water, evaluated on day 20): 145 % of control [4 of 5 alive]; T/C (dose: 50.0 mg/kg/injection, schedule: Q01DX005 (ip), vehicle: water, evaluated on day 30): 106 (2×), 114 (2×), 120, 121, 122, 123 (2×), 125 (2×), 127, 128, 129 (4×), 130, 130 [4 of 6 alive], 131, 132 (2×), 133, 135 (5×), 136 (2×), 137, 138 (2×), 139 (2×), 141, 143, 144, 145, 148, 152 % of control; T/C (dose: 50.0 mg/kg/injection, schedule: Q01DX005 (ip), vehicle: water, evaluated on day 35): 142 (2×) and 171 % of control; T/C (dose: 50.0 mg/kg/injection, schedule: Q01DX005 (ip), vehicle: water, evaluated on day 40): 141 % of control; T/C (dose: 50.0 mg/kg/injection, schedule: Q01DX005 (ip), vehicle: water, evaluated on day 45): 116 % of control; T/C (dose: 50.0 mg/kg/injection, schedule: Q01DX005 (ip), vehicle: water, evaluated on day 50): 131 % of control; T/C (dose: 54.0 mg/kg/injection, schedule: Q01DX005 (ip), vehicle: saline): 138 % of control; T/C (dose: 60.0 mg/kg/injection, schedule: Q01DX005 (ip), vehicle: water): 141 % of control; T/C (dose: 64.8 mg/kg/injection, schedule: Q04DX003 (ip), vehicle: saline): 146 % of control; T/C (dose: 75.0 mg/kg/injection, schedule: Q01DX005 (ip), vehicle: saline): 144 % of control [7 of 8 alive]; survivor count (dose: 90.0 mg/kg/injection, schedule: Q01DX005 (ip), vehicle: saline): 8 of 8; T/C (dose: 90.0 mg/kg/injection, schedule: Q01DX005 (ip), vehicle: water): 138 % of control; T/C [1]: 99, 149, 169 % of control; survivor count [1]: 3 of 5; survivor count (dose: 100.0 mg/kg/injection, schedule: Q01DX005 (ip), vehicle: saline with Tween-80): 3 of 6; T/C (dose: 100.0 mg/kg/injection, schedule: Q01DX005 (ip), vehicle: water, evaluated on day 20): 157 % of control; T/C (dose: 100.0 mg/kg/injection, schedule: Q01DX005 (ip), vehicle: water, evaluated on day 30): 89 [5 of 6 alive], 96, 140, 141 [4 of 5 alive], 147, 150, 151, 154, 154 [4 of 5 alive], 155 [5 of 6 alive], 156, 157, 157 [5 of 6 alive], 160, 161, 161 [5 of 6 alive], 163 (3×), 163 [5 of 6 alive], 168 (2×), 169, 174 (3×), 178, 182, 188 % of control; T/C (dose: 100.0 mg/kg/injection, schedule: Q01DX005 (ip), vehicle: water, evaluated on day 35): 185 % of control; T/C (dose: 100.0 mg/kg/injection, schedule: Q01DX005 (ip), vehicle: water, evaluated on day 40): 93 % of control; T/C (dose: 100.0 mg/kg/injection, schedule: Q01DX005 (ip), vehicle: water, evaluated on day 45): 155 and 159 % of control [6 of 8 alive]; T/C (dose: 100.0 mg/kg/injection, schedule: Q01DX005 (ip), vehicle: water, evaluated on day 50): 162 % of control; survivor count (dose: 100.0 mg/kg/injection, schedule: Q01DX005 (ip), vehicle: water): 0 of 6, 1 of 6, 3 of 6 (2×), 4 of 6 (2×), 4 of 5, 5 of 6 (2×), 5 of 5; T/C (dose: 100.0 mg/kg/injection, schedule: Q01DX009 (ip), vehicle: water): 135 % of control; T/C (dose: 108.0 mg/kg/injection, schedule: Q04DX003 (ip), vehicle: saline): 138 % of control; survivor count (dose: 125.0 mg/kg/injection, schedule: Q01DX005 (ip), vehicle: saline): 3 of 3; survivor count (dose: 125.0 mg/kg/injection, schedule: Q01DX005 (ip), vehicle: water): 3 of 8; survivor count (dose: 150.0 mg/kg/injection, schedule: Q01DX005 (ip), vehicle: saline): 8 of 8; survivor count (dose: 150.0 mg/kg/injection, schedule: Q01DX005 (ip), vehicle: water): 0 of 8; survivor count (dose: 200.0 mg/kg/injection, schedule: Q01DX005 (ip), vehicle: distilled water + Tween-80): 1 of 5 and 5 of 6; survivor count (dose: 200.0 mg/kg/injection, schedule: Q01DX005 (ip), vehicle: saline with Tween-80): 3 of 6; survivor count (dose: 200.0 mg/kg/injection, schedule: Q01DX005 (ip), vehicle: water): 1 of 5; T/C (dose: 300.0 mg/kg/injection, schedule: Q04DX003 (ip), vehicle: saline): 149 % of control

Q: Which survivor count (dose: 100.0 mg/kg/injection, schedule: Q01DX009 (ip), vehicle: saline) does the source give for `C[N+]1=P(C)(C)N=P(C)(C)[N+](C)=P(C)(C)N=P1(C)C` here?
A: The survivor count was 4 of 6.

Q: What about the survivor count (dose: 200.0 mg/kg/injection, schedule: Q01DX009 (ip), vehicle: saline) of the same molecule?
A: The survivor count was 0 of 6.

Q: For `COc1ccc2c(c1)C(=O)C1(CC2)OC1c1cccnc1` (stereo not drawn), which T/C (dose: 200.0 mg/kg/injection, schedule: Q01DX009 (ip), vehicle: other) is on record?
A: Its T/C is 129 % of control.

Q: How did the survivor count (dose: 240.0 mg/kg/injection, schedule: Q01DX005 (ip), vehicle: saline with Tween-80) turn out when `C=C1C(OC(=O)c2ccccc2)C2[C@@H](OC(=O)CC)[C@@H](C)C[C@]2(O)C(=O)[C@@H](C)/C=C/C(C)(C)C(=O)C(O)[C@H]1OC(=O)C(C)C` (stereo partly drawn) was run?
A: Its survivor count is 1 of 6.
